# Hit rate of the full screen: of about 390,000 compounds, about 820 (0.21%) were called active. Inconclusive means that the source gave no clear call. Such entries were picked first, then a sample of the others. The call rests on the fitted dose curve; in most records, active means well fitted inhibition curve with a large enough effect; inconclusive means small, poorly fitted or top-dose-only effect, or another doubt; inactive means no such curve, though single readings can be large or run the other way. Potencies of inconclusive entries are doubtful fits and often do not repeat.
# Chains of the proteins cited; added tags and fusions are not shown.
# UniProt Q92830, whole entry, looked up: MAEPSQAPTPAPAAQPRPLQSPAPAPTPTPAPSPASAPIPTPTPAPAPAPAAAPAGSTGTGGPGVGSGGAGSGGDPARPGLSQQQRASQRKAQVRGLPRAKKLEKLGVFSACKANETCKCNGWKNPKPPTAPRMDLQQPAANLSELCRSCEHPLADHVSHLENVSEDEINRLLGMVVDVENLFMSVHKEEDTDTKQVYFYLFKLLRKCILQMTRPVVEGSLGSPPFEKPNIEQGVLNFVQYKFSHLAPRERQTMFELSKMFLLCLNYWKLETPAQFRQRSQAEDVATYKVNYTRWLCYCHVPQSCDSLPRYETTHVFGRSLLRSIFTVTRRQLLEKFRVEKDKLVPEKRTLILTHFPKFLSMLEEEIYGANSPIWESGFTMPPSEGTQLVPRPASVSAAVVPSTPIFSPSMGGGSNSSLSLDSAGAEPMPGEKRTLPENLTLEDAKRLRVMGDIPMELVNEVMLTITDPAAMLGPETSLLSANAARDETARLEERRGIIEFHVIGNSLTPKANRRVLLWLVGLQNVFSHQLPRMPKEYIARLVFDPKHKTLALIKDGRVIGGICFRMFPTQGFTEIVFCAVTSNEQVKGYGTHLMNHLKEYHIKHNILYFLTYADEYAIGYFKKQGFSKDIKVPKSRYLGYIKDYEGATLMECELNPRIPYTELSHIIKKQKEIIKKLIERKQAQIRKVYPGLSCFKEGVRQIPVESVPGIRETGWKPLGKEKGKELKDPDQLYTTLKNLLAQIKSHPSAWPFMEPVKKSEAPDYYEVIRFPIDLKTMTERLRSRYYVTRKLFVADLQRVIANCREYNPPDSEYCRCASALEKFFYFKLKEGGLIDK
# Molecular target: Histone acetyltransferase KAT2A (Homo sapiens) (UniProt Q92830)
# Assay: qHTS Assay for Inhibitors of GCN5L2
# Settings: GCN5L2 HAT assay, ThioGlo1 CoA-SH fluorescence; activity change, negative = inhibition: at 58.9 µM (top of the series) unless noted
# How it was run: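 Compounds, pin-transferred from DMSO stocks, meet 20nM GCN5L2 for 15 min before the reaction begins with H3(1-25) peptide (75uM) and acetyl-CoA (70uM). Thiol-reactive ThioGlo1 reports CoA release over 20 min at room temperature.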
# On the % scale 0 is the no-effect control and ±100 the full control effect; potency means the concentration at half of the fitted maximal effect.
SMILES,Potency,"activity change, negative = inhibition"
COc1ccc(C(=O)N2CCCC(CNC(=O)c3ccccc3Cl)C2)o1 (centres undefined),"inconclusive: 0.708 µM [inhibitor, full curve, poor fit]",–
O=C(Nc1ccccc1[N+](=O)[O-])c1cccc(N2C(=O)CCC2=O)c1,inactive,–
CCOc1ccc(-c2nnn(CC(=O)Nc3cc(OC)ccc3OC)n2)cc1OCC,"inconclusive: 1.78 µM [inhibitor, single point]",–
CCc1c(C)c(C#N)c2[nH]c3ccccc3n2c1=S,"inconclusive: 28.2 µM [inhibitor, single point]",–
CC(=O)Nc1nc(COc2ccc3ccccc3c2)cs1,–,inconclusive: -37.8% [inhibitor]
COc1ccc2c(c1OC)C(=O)N1C2SC(C)(C)[C@H]1C(=O)NC1CCCC1 (some centres undefined),active: 31.6 µM,–
NC(=O)C1CCN(c2ncnc3c2c(-c2ccccc2)cn3-c2ccccc2)CC1,inactive,–
Cc1ccc(N(C(C)C(=O)O)S(=O)(=O)c2cccnc2)cc1 (centres undefined),"inconclusive: 31.6 µM [inhibitor, single point]",–
Cc1cc(Cl)ccc1Oc1ccccc1C(=O)CC#N,"inconclusive: 28.2 µM [inhibitor, single point]",–
CN(C)CCn1c(=O)n(Cc2ccco2)c(=O)c2c3c(sc21)CCCCC3,"inconclusive: 39.8 µM [inhibitor, single point]",–
N#Cc1c(NC(=O)c2ccccc2Cl)n(Cc2ccccc2)c2nc3ccccc3nc12,"inconclusive: 31.6 µM [inhibitor, single point]",–
C/C(CCC(C)C)=N\NC(=S)NCc1ccccc1,inactive,–
CS(=O)(=O)N1CCN(c2ccc(NC(=O)c3ccc(-c4ccc(Cl)cc4)o3)cc2)CC1,inactive,–
COc1ccc2c(c1)c(=O)cc(C)n2CC(=O)NCc1ccco1,"inconclusive: 22.4 µM [inhibitor, partial curve, poor fit]",–
Cc1ccc(-c2cc(C(=O)Nc3nccs3)c3ccccc3n2)o1,"inconclusive: 25.1 µM [inhibitor, single point]",–
O=C(O)CSCC(=O)N1CCN(S(=O)(=O)c2ccccc2)CC1,inactive,–
Cc1sc2nc(C3CC3)nc(N3CCN(C(=O)c4ccc(Cl)cc4)CC3)c2c1C,inactive,–
NC(=S)Nc1nc2ccccc2s1,inactive,–
CC(C)CN(C(=O)COC(=O)c1ccc(Cl)nc1)c1c(N)n(Cc2ccccc2)c(=O)[nH]c1=O,"inconclusive: 20 µM [inhibitor, partial curve]",–
CCCN1CCN(CCCNC(=S)Nc2ccc3nc(N4CCN(CC)CC4)cc(C)c3c2)CC1,"inconclusive: 7.08 µM [inhibitor, single point]",–
CCc1ccc([C@@H]2CC=C(C(=O)O)[C@H](c3ccc(C(C)(C)C)cc3)N2S(=O)(=O)c2ccc(C)cc2)cc1,active: 17.8 µM,–
COc1cccc(C2CC(=O)Nc3c2c(=O)[nH]c2ncnn32)c1 (centres undefined),inactive,–

SMILES,Potency,"activity change, negative = inhibition"
CC1(C)Cc2c(C#N)c(SCc3ccccc3)nc(N3CCOCC3)c2CO1,"inconclusive: 6.31 µM [inhibitor, single point]",–
O=C(Cn1c(=O)cnc2ccccc21)N1CCN(S(=O)(=O)c2ccc(F)cc2)CC1,"inconclusive: 39.8 µM [inhibitor, partial curve]",–
COc1cccc(CNS(=O)(=O)c2ccc3c(c2)N(C(C)=O)CCS3)c1,"inconclusive: 0.141 µM [inhibitor, full curve, poor fit]",–
COc1ccc(-c2ccc(/C=N/N3C(=O)C4C5C=CC(C6CC56)C4C3=O)o2)c([N+](=O)[O-])c1 (centres undefined),inactive,–
CCCCCc1ccc(-c2nnc(N)s2)cc1,"inconclusive: 39.8 µM [inhibitor, single point]",–
O=S(=O)(Nc1ccc(Br)cn1)c1ccc(Cl)s1,"inconclusive: 0.631 µM [inhibitor, full curve, poor fit]",–
c1ccc(Cc2nn3c(C4COc5ccccc5O4)nnc3s2)cc1 (centres undefined),"inconclusive: 25.1 µM [inhibitor, partial curve]",–
CCCC[C@]12Cc3cc(C#N)ccc3C(O1)c1c(cc(C)n(-c3ccccc3)c1=O)O2,–,inactive: -4.32% [at 12.7 µM]
CCC(C)(C)NC(=O)C(C(C)C)N(CC1CCCO1)C(=O)CNS(=O)(=O)c1ccccc1 (centres undefined),inactive,–
c1cncc(-c2nc(NCc3ccco3)c3ccccc3n2)c1,"inconclusive: 10 µM [inhibitor, partial curve]",–
NCCCC(=O)O,"inconclusive: 39.8 µM [inhibitor, single point]",–
O=C(O)c1cccc(CN2C(=O)CSC2=O)c1,"inconclusive: 6.31 µM [inhibitor, single point]",–
O=C(O)C1CCCCC1C(=O)Nc1cccc(Br)c1 (centres undefined),"inconclusive: 28.2 µM [inhibitor, single point]",–
COc1ccc(OCc2cc(C(=O)NCC(C)Oc3cccnc3)no2)c(Cl)c1 (centres undefined),"inconclusive: 0.631 µM [inhibitor, full curve, poor fit]",–
Cc1c(C)n2c(SCC(=O)N3CC(C)OC(C)C3)nnc2[nH]c1=O (centres undefined),"inconclusive: 3.16 µM [inhibitor, single point]",–
C1CCN2C[C@H]3C[C@H](CN4CCCCC34)C2C1 (some centres undefined),"inconclusive: 39.8 µM [inhibitor, single point]",–
C[C@@]12C=CC(=O)C=C1CC[C@@H]1[C@@H]2[C@H](O)C[C@]2(C)[C@@H]1CC[C@]2(O)C(=O)CO,"inconclusive: 15.8 µM [inhibitor, single point]",–
CNC(=O)NC(=S)NC(=O)c1ccccc1Cl,inactive,–
Cc1cc(C)c(NC(=O)Cn2c(=O)n(Cc3ccc(C(=O)NCc4ccco4)cc3)c(=O)c3sccc32)c(C)c1,"inconclusive: 14.1 µM [inhibitor, partial curve]",–
O=[N+]([O-])c1ccc(N2CCN(S(=O)(=O)c3ccccc3)CC2)cc1NCc1ccco1,inactive,–
CC(C)C[C@H](NC(=O)[C@@H]1CCCN1C(=O)[C@H](Cc1ccccc1)NC(=O)[C@H](C)NC(=O)[C@H](CCC(=O)O)NC(=O)[C@H](C)NC(=O)[C@H](CO)NC(=O)[C@H](CCC(=O)O)NC(=O)[C@H](CC(=O)O)NC(=O)[C@H](CCC(=O)O)NC(=O)[C@H](C)NC(=O)CNC(=O)[C@H](CC(N)=O)NC(=O)[C@@H]1CCCN1C(=O)[C@H](Cc1ccc(O)cc1)NC(=O)[C@@H](NC(=O)[C@H](CCCCN)NC(=O)[C@@H](NC(=O)[C@@H]1CCCN1C(=O)[C@@H](N)CCCNC(=N)N)C(C)C)C(C)C)C(=O)N[C@@H](CCC(=O)O)C(=O)N[C@@H](Cc1ccccc1)C(=O)O,inactive,–
CN(Cc1nc2ccccc2c(=O)[nH]1)CC(O)COCc1ccco1 (centres undefined),"inconclusive: 0.355 µM [inhibitor, full curve, poor fit]",–

SMILES,Potency,"activity change, negative = inhibition"
Cn1c(-c2ccc(Cl)nc2)nc2cc(Cl)ccc21,"inconclusive: 4.47 µM [inhibitor, single point]",–
CCN1CCN(Cc2c(O)ccc3cc(-c4ccc(OC)cc4)c(=O)oc23)CC1,"inconclusive: 20 µM [inhibitor, partial curve, poor fit]",–
COCc1cc(C)nc(SCc2ccccc2)c1C#N,"inconclusive: 39.8 µM [inhibitor, single point]",–
CCOCCCNC(=O)CS(=O)(=O)Cc1nc(-c2cccc(OC)c2)oc1C,"inconclusive: 10 µM [inhibitor, partial curve]",–
CC1CN(C(=O)c2cc3c(=O)n4ccccc4nc3n2C)CC(C)O1 (centres undefined),"inconclusive: 25.1 µM [inhibitor, partial curve]",–
COc1cc(C(=O)NC2CCCc3ccccc32)cc(OC)c1OC (centres undefined),inactive,–
CC(CNC(=O)c1ccc(NC2=NC3CS(=O)(=O)CC3S2)cc1)c1ccccc1 (centres undefined),"inconclusive: 0.794 µM [inhibitor, single point]",–
Cc1nn(-c2ccc(C(=O)O)cc2)c(C)c1Cl,"inconclusive: 39.8 µM [inhibitor, single point]",–
CC1SC(=S)N(c2ccc(N(C)C)cc2)C1=O (centres undefined),"inconclusive: 35.5 µM [inhibitor, single point]",–
CN(Cc1ccco1)c1ccnc(-c2ccoc2)n1,"inconclusive: 31.6 µM [inhibitor, single point]",–
NNC(=S)NCc1ccco1,inactive,–
O=C(CCNC(=O)c1ccccc1Cl)Nc1cc(C(F)(F)F)ccc1N1CCCC1,inactive,–
Cc1ccc(C(=O)CCC(=O)OCc2nnc(-c3ccccc3)o2)cc1,"inconclusive: 8.91 µM [inhibitor, single point]",–
CN(C(=O)c1nn(C)c2c1CS(=O)(=O)c1ccccc1-2)c1cccc(Cl)c1,inactive,–
O=C(CSCC(=O)N1CCOCC1)Nc1nc(-c2ccccc2)cs1,inactive,–
COc1ccc(C)cc1NC(=O)Nc1ccccc1,–,inactive: -2.84% [at 0.501 µM]
O=C(N/N=C/c1ccc([N+](=O)[O-])o1)c1cc(-c2ccncc2)nc2ccccc12,"inconclusive: 39.8 µM [inhibitor, single point]",–
CCC(=O)OCC(=O)C1(OC(=O)CC)C(C)CC2C3C(Cl)CC4=CC(=O)C=C[C@@]4(C)C3C(O)C[C@@]21C (some centres undefined),"inconclusive: 20 µM [inhibitor, single point]",–
COc1ccc(-n2c(CNC(=O)c3ccc(S(=O)(=O)N4CCCC4)cc3)n[nH]c2=S)cc1,"inconclusive: 5.01 µM [inhibitor, single point]",–
O=C(COc1ccccc1[N+](=O)[O-])Nc1cccc(C(=O)Nc2ccccc2C(=O)O)c1,"inconclusive: 0.891 µM [inhibitor, full curve, poor fit]",–

# Three of the compounds above, bar-delimited.
SMILES | Potency | activity change, negative = inhibition
Cc1nn(-c2ccc(C(=O)O)cc2)c(C)c1Cl | inconclusive: 39.8 µM [inhibitor, single point] | –
NNC(=S)NCc1ccco1 | inactive | –
Cc1ccc(C(=O)CCC(=O)OCc2nnc(-c3ccccc3)o2)cc1 | inconclusive: 8.91 µM [inhibitor, single point] | –
